# Measured values taken from PMC4214795.
# Results are given in words; binding and its absence hold for the method and conditions named. For some of these results: Binding can be weak; no strength is given. Where a sequence is shown, tags or fusion partners need not be part of it.
# B1: Vps20p (ESCRT-III), GAL4 transcription activation domain fusion (protein, UniProt O94318 1-226)
# chain: MGVNSSKINDKDRSILSIKEQRDKLLRYSKRLEKIEQLEIDIARKCLRDSDKRGALRALKAKKLYSGLITQTYGQLGNIEQLLSTIEFTLIQKDVMFGLQEGTNLIRQLQADMPLERVGRICNDRDEAMSYVDEVNDMLQGRMSRDQEDEIQEELDSLIREQEDEKVKDLEKPGFTPSTGVDVLPSVPLKNAIPSLDESFPKAASVSNTSSAVVIDEELRKDPVLG
# Assays:
# [1] = target: T1, Ark1p (wild-type), LexA DNA binding domain fusion (S. pombe) (UniProt O59790); assay: two-hybrid; bait fused to LexA DNA binding domain (Plo1p or Ark1p), prey ESCRT proteins fused to GAL4 transcription activation domain; budding yeast with LEXA-galactosidase readout; three days on selective medium, X-gal overlay; qualitative
# T1 sequence: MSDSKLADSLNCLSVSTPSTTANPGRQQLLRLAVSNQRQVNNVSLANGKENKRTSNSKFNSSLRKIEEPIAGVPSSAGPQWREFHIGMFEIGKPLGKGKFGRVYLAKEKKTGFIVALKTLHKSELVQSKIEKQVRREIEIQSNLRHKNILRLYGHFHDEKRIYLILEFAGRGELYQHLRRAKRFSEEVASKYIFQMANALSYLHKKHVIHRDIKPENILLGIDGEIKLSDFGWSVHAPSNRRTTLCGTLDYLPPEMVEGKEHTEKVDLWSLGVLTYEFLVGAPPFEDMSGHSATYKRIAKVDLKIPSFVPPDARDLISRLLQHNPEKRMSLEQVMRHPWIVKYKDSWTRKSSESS
# [2] = target: T2, Plo1p (wild-type), LexA DNA binding domain fusion (S. pombe) (UniProt P50528); assay: as above
# T2 sequence: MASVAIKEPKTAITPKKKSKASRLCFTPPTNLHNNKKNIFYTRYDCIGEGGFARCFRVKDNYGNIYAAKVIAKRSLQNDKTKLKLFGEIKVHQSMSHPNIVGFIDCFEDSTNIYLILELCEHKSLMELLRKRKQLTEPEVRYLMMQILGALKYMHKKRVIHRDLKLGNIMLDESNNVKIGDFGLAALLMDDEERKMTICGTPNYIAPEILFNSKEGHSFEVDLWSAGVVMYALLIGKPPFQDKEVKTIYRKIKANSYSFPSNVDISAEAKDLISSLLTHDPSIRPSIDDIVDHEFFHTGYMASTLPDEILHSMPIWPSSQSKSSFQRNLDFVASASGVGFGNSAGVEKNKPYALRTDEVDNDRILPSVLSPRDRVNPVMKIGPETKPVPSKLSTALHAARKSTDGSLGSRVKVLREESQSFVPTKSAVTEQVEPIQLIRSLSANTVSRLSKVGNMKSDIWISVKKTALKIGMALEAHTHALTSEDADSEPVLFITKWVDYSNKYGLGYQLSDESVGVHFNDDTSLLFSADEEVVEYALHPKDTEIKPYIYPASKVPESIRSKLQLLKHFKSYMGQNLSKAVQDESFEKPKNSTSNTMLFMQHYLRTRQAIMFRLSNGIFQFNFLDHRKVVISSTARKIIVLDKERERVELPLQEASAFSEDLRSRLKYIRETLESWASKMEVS
# [3] = target: T3, Clp1aa.1-371, GAL4 DNA binding domain fusion (S. pombe) (UniProt Q9P7H1); assay: two-hybrid; bait Clp1p fused to GAL4 DNA binding domain, prey ESCRT proteins fused to GAL4 transcription activation domain; budding yeast with GAL4-galactosidase readout; X-gal overlay; interaction read from the lack of transcriptional readout of the auto-activating bait Clp1aa.1-371
# T3 sequence: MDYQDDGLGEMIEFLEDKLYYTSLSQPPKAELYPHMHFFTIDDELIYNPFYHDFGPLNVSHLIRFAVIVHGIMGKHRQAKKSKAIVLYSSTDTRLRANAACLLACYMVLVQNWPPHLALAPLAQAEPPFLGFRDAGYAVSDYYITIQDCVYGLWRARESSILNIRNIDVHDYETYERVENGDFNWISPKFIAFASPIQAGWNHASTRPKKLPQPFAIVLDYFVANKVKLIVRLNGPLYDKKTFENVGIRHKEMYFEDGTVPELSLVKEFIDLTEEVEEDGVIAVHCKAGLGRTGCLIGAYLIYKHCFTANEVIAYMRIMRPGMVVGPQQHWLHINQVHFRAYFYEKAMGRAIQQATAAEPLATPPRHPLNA
# [4] = target: Ark1.K147R (kinase-dead Ark1p), LexA DNA binding domain fusion (S. pombe) (UniProt O59790); assay: two-hybrid; bait fused to LexA DNA binding domain (Plo1p or Ark1p), prey ESCRT proteins fused to GAL4 transcription activation domain; budding yeast with LEXA-galactosidase readout; three days on selective medium, X-gal overlay; qualitative
Molecule,binding [1],binding [2],binding [3],binding [4]
"Vps32p (ESCRT-III), GAL4 transcription activation domain fusion (S. pombe)",no binding,binds,no binding,–
B1,–,–,–,binds
